From the supplement of paper PMC10849652
The other results are listed elsewhere or left out.

By UniProt entry, the sequences of proteins in these tests, tags left out. Where a name states a change or a piece, a line headed by the entry shows the natural chain unless it says otherwise.
UniProt O43402: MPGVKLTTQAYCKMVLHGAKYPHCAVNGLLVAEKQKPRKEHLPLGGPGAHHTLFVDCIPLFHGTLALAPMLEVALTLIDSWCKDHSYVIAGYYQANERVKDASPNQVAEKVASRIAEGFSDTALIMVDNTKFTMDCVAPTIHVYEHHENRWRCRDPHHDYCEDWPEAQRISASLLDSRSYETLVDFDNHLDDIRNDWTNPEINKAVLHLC
UniProt P19447: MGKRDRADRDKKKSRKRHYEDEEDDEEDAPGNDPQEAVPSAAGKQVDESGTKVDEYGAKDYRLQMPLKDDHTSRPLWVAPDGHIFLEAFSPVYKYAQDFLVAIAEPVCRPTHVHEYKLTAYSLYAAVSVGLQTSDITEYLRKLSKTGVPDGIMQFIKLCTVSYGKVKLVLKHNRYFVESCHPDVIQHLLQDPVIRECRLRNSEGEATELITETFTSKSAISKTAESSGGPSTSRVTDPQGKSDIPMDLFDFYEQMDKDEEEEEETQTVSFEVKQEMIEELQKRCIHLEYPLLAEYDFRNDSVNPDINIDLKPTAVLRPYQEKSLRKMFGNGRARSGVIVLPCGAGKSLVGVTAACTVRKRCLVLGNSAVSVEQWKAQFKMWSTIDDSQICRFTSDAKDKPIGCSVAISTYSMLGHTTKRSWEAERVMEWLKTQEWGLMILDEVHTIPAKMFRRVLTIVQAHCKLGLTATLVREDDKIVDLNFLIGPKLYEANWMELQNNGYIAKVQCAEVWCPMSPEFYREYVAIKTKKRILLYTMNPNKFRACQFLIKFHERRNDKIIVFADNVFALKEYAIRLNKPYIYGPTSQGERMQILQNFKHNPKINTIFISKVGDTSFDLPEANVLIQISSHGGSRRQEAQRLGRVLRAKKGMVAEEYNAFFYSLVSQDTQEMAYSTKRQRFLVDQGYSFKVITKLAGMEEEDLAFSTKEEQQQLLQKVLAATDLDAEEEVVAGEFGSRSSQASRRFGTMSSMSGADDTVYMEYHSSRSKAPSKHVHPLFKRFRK
UniProt O15371, whole entry, looked up: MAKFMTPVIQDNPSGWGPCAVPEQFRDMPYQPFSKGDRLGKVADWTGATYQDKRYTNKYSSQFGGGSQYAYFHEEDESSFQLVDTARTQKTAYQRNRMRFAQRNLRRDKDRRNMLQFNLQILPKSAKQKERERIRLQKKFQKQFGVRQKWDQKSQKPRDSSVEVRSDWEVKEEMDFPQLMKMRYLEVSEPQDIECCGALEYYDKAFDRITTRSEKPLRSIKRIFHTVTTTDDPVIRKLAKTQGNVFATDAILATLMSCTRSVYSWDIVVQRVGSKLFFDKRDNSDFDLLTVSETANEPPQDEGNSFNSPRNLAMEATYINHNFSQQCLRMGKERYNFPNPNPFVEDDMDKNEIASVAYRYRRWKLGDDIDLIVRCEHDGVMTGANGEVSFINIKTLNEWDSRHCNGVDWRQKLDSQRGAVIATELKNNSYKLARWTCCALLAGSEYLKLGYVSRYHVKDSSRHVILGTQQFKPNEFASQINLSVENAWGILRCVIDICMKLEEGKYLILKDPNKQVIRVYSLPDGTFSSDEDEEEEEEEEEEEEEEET
UniProt O75616: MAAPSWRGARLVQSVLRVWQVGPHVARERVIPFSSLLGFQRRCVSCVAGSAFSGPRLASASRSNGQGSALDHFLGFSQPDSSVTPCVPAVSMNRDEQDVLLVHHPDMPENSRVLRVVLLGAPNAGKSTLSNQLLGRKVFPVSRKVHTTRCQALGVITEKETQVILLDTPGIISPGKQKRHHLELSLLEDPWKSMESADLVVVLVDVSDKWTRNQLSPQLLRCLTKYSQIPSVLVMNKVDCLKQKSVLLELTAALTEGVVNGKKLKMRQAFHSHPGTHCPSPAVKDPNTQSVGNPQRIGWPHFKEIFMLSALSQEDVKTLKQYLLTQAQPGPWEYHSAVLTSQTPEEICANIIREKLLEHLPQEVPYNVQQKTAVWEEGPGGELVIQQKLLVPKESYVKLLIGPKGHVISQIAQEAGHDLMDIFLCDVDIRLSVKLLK
UniProt Q92979: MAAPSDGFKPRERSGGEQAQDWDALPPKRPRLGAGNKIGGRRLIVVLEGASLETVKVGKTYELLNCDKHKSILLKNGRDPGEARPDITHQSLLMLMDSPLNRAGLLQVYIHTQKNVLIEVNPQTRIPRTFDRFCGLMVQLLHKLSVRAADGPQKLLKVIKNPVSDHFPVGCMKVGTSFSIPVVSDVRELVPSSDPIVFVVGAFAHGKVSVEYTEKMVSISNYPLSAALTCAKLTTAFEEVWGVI
UniProt P41091, whole entry, looked up: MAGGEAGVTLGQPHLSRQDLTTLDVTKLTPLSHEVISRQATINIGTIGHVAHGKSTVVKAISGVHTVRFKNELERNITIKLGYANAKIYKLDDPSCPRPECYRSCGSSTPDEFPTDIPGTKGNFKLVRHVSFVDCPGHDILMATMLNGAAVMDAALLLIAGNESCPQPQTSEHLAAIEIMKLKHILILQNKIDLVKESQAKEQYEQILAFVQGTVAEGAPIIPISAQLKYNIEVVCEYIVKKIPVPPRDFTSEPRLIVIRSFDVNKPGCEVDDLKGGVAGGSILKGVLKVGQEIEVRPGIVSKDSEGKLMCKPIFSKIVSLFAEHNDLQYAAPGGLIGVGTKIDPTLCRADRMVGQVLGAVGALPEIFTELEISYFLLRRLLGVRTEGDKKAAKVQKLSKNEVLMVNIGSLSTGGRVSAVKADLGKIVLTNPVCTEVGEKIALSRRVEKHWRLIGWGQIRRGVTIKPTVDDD
UniProt P49770: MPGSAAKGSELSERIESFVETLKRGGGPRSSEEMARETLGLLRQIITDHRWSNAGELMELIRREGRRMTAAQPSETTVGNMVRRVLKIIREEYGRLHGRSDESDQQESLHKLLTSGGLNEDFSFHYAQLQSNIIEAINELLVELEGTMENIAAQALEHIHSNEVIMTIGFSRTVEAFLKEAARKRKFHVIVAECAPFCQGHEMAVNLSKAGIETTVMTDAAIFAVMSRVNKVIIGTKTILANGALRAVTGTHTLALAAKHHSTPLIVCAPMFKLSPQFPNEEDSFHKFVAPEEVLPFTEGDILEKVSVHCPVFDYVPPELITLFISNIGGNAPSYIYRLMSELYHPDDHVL
UniProt Q6ZTU2, whole entry, looked up: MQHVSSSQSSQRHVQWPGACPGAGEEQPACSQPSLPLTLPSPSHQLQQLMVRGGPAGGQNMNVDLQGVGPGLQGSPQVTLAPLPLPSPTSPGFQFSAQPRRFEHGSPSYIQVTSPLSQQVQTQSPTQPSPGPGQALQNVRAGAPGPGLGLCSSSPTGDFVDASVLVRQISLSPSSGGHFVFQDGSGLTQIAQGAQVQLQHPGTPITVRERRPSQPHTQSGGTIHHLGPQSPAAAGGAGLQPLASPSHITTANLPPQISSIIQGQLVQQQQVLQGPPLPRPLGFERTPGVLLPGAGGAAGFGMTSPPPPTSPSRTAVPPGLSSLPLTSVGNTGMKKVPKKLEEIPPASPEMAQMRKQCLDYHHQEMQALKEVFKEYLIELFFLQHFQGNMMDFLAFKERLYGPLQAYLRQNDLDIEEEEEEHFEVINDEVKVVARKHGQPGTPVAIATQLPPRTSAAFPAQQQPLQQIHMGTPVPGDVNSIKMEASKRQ
UniProt P26378: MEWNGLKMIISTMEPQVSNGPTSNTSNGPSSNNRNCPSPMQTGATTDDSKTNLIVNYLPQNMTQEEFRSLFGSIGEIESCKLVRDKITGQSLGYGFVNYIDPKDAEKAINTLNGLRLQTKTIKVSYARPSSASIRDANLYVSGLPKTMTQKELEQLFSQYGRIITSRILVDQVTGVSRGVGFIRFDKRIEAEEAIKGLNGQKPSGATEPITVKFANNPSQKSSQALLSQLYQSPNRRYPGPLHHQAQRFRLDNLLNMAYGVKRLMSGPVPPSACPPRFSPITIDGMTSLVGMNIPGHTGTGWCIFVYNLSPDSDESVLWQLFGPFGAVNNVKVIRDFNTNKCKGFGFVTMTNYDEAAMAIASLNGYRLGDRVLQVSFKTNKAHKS
UniProt Q8NFI3: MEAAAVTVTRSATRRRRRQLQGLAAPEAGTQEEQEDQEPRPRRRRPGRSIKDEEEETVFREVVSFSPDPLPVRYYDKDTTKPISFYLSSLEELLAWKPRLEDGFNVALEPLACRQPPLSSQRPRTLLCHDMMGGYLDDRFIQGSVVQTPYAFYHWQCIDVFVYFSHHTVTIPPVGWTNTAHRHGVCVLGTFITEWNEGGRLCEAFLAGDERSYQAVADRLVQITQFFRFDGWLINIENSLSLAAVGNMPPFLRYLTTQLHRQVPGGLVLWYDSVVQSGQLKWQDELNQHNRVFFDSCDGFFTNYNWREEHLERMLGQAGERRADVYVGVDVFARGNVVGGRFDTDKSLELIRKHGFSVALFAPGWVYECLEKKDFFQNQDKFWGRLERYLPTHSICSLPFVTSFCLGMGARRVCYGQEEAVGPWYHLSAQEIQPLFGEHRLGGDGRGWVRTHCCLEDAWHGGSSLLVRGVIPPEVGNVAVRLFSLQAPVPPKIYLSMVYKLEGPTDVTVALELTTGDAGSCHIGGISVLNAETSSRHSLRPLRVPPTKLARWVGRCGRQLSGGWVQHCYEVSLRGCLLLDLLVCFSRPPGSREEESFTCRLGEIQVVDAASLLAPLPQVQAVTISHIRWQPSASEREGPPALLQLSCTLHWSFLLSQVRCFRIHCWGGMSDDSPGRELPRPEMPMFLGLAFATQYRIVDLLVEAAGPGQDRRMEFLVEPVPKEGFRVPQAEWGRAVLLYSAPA
UniProt Q7L775: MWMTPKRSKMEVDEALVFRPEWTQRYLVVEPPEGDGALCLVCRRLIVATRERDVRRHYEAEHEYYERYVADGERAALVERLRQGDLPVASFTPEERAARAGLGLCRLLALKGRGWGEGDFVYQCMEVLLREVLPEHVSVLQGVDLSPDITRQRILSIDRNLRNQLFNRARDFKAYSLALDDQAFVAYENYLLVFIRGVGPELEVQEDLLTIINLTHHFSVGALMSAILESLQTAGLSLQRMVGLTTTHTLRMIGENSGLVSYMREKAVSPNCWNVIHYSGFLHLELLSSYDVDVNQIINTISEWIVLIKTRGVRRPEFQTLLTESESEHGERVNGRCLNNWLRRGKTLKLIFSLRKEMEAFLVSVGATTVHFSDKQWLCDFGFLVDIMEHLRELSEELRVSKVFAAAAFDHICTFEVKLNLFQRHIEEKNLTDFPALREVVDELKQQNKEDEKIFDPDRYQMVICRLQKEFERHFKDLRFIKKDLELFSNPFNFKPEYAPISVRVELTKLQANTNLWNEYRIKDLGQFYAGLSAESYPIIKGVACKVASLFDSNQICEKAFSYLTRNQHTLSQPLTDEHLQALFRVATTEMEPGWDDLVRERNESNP
UniProt P32519: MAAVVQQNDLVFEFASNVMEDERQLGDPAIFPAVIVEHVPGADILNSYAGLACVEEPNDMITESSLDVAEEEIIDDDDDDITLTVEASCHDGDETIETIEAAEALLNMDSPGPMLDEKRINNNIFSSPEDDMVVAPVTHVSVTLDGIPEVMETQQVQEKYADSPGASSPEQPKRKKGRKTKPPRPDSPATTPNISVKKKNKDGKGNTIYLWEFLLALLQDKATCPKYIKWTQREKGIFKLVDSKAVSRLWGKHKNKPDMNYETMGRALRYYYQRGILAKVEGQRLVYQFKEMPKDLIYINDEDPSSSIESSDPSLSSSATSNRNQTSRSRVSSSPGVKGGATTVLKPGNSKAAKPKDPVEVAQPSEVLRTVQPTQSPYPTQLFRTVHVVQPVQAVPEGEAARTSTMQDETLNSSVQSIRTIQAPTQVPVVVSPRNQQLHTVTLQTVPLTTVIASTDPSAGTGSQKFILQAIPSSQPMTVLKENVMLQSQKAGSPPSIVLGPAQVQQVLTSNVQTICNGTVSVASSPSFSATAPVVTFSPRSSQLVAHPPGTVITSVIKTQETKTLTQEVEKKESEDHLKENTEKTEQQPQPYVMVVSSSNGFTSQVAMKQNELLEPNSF
UniProt P63241: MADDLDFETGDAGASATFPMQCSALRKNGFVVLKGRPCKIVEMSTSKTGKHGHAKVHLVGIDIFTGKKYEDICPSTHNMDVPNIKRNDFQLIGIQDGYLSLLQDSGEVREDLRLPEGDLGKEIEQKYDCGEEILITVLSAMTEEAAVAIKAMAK
UniProt Q13542: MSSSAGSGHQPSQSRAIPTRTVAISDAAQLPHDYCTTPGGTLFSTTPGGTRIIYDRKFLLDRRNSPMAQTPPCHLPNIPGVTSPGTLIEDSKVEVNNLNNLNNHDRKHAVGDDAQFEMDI
UniProt P09104, whole entry, looked up: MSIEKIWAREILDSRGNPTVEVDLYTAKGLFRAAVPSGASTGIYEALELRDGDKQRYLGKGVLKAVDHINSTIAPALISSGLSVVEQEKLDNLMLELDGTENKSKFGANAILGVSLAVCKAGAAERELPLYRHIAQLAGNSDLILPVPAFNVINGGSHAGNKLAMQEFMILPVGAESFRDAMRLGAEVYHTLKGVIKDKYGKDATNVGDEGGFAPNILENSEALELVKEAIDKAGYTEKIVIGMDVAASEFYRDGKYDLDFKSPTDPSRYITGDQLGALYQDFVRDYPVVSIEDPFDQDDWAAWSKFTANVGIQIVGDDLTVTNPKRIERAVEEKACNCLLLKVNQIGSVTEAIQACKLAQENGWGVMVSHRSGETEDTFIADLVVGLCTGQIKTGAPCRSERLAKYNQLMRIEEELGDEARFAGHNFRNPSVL

These targets were tested with c1cn2cc(-c3ccc4cn[nH]c4c3)nc(Nc3ccc(N4CCOCC4)cc3)c2n1 [entospletinib] (assay: log2 fold change, soluble protein after heating vs DMSO (PISA); higher = thermal stabilisation; K562 lysate, 10 uM; active = over 0.2 and 3.5 SD of the protein, either way, in both replicates (recomputed)).
In short: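 To prepare the extract, K562 pellets were dounce-homogenised in PBS pH 7.4 with 1 mM MgCl2, giving crude material at 1 mg/mL protein. This was treated with 10 μM compound for 30 min, then heated in aliquots for 3 min over 48°C-58°C before pooling and addition of NP-40 to 0.5% at 4°C. Centrifugation at 21,000xg for 90 min left soluble protein in the supernatant, which TMTpro 16plex LC-MS/MS quantified with equalised channel sums. Results are log-two fold changes in thermal stability compared with solvent controls, from duplicates.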

log2 fold change, inactive:
EMC8 (UniProt O43402) 0.006
ERCC3 (UniProt P19447) -0.006
EIF3D (UniProt O15371) 0.029
ERAL1 (UniProt O75616) -0.083
EIF4A2 isoform 2 (UniProt Q14240) 0.003
ERC1 (UniProt X6RLX0) -0.05
EMG1 (UniProt Q92979) 0.026
ENPP3 (UniProt O14638) -0.03
EIF2S3 (UniProt P41091) 0.047
EIF2B2 (UniProt P49770) -0.002
EPB41 (UniProt P11171) 0
EIF2AK4 (UniProt Q9P2K8) -0.012
EP400P1 isoform 6 (UniProt Q6ZTU2) 0.011
ELMOD2 (UniProt Q8IZ81) 0.036
ELAVL4 (UniProt P26378) -0.067
ENGASE (UniProt Q8NFI3) -0.004
EPM2AIP1 (UniProt Q7L775) 0.003
ELF1 (UniProt P32519) 0.048
EIF4E2 (UniProt O60573) -0.013
EIF5A isoform 2 (UniProt P63241) 0.003
EIF4EBP2 (UniProt Q13542) -0.318
ELMO1 (UniProt Q92556) 0.004
ENO2 (UniProt P09104) -0.068

2 successive entries already listed:
log2 fold change, inactive:
EP400P1 isoform 6 (UniProt Q6ZTU2) 0.011
ELMOD2 (UniProt Q8IZ81) 0.036
